Laboratory results taken from EP0314828A1, “4-Phenyl-1,2,3,4-tetrahydroisoquinolins as ulcer agents” (S O "PHARMACHIM", priority 1987, dated 1989).
For at least one compound, name, drawing or mass did not settle the structure.

System: Geschwüren nach Shei
Assay: ulcer model according to Shei (ligature) in rats
Type: in vivo, Ratten
Details: Table 7, 30 mg/kg, printed sign: - decrease of index vs Kontrolle
Text: Die Versuche wurden mit weißen, männlichen Ratten, Rasse Wistar, mit einem Gewicht von 180 bis 270 g durchgeführt. Die Tiere werden 48 Stunden nicht gefüttert bei freiem Zugang zu Wasserquellen. 5 Stunden nach der Ligatur werden die Tiere getötet, die Mägen werden herausgenommen und die destruktiven Veränderungen makroskopisch untersucht. Als Vergleichspräparate wurden Cimetidin und Ranitidin angewandt (Tabelle 7). TABELLE 7

`CNC(=C[N+](=O)[O-])NCCSCc1ccc(CN(C)C)o1` [Ranitidin, N-/5-Dimethylamino-methyl/-2-furanil-methyl-thioethyl-/N-methyl-2-nitro/-1,1-ethan-diamin, reference compound] was tested, and the “Prozentsatz der Unterdrückung des Ulkusindexes” value was “- 43,75 Prozent”.
